# Over roughly 33,000 sequences, “E-score (-0.5 to 0.5)” has its median near -0.0034; the highest 2% begin near 0.25. The list shows a part of the results.
# Biological target: T1, Yap3 (UniProt P38749)
# T1 sequence: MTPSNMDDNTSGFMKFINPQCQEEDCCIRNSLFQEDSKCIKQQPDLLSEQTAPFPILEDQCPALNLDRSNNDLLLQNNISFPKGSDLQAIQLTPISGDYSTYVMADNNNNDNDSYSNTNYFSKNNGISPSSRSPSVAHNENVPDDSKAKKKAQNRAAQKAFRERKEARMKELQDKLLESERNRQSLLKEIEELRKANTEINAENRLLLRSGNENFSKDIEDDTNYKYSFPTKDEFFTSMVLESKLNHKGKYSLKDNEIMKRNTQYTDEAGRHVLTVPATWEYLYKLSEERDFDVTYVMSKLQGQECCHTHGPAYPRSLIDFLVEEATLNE
# Test: PBM E-score (8-mer binding enrichment) (E-score (-0.5 to 0.5)); higher = stronger / more preferred TF binding
# Settings: protein concentration: 100 nM; construct: GST-full length
# Outline: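 Yeast transcription factors carrying a GST tag, as full-length proteins or DNA-binding domains, were produced by PURExpress in vitro transcription/translation. About 100-200 nM protein was applied to universal all-10-mer Agilent arrays, double-stranded by primer extension on fresh or once-stripped slides. Bound protein was detected with fluorescent anti-GST, and scans were normalised with masliner. The Universal PBM Analysis Suite gave each ungapped eight-base word, pooled with its reverse complement, an E-score, a modified Wilcoxon-Mann-Whitney statistic.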
row,Sequence,PBM E-score
1,GCCACAGA,-0.332
2,AATGGGCA,0.0565
3,AAAAATGA,0.197
4,CAACAAGG,0.141
5,CTGTGCAC,-0.117
6,ATAAGGAG,-0.0536
7,CTCCTGTC,-0.027
8,GCCGTTAC,0.0255
9,CTCCATCA,-0.0379
10,GGTGGCAC,-0.193
11,AAGGGTGG,-0.165
12,ATTGAGGA,0.148
13,TCTAATAA,0.167
14,ACGTATGC,0.00249
15,AGCCACCA,-0.0526
16,ATATATAG,0.231
17,GATACGCA,0.101
18,GAGCAGGA,-0.00825
19,GGGGCACA,-0.273
20,GGCAAGAA,0.195
21,GTTCGCTA,-0.0447
22,ATTCATGC,0.0948
23,AGCAACGA,0.117
24,ACCCTGAA,-0.0609
25,GATCAACC,-0.188

row,Sequence,PBM E-score
1,ACACAGTG,0.07
2,TAAGAACA,0.326
3,GTTCTTTA,0.224
4,TCGCTCAA,0.149
5,TCGCAAAA,0.0856
6,GGCGATAC,-0.0764
7,AGAATTTA,0.276
8,TCGTTTAA,0.0907
9,AATGATGA,0.189
10,CTGGGATA,-0.0867
11,CCAGGGGA,-0.334
12,CTTACCGA,-0.0558
13,AAGCATGA,0.00576
14,TCGCGACA,0.0582
15,CCAGTCTC,-0.22
16,AACCTCAC,-0.136
17,CCACCACG,-0.0554
18,GCCAAGCC,-0.204
19,CTAAACCA,-0.175
20,ATATCATC,0.14
21,TCGTACCA,0.124
22,ACTGCGCT,0.0128
23,ACGGATTA,0.109
24,AATGTGAA,0.255
25,TAGGCCTA,0.105

row,Sequence,PBM E-score
1,GCCTCGAA,0.0153
2,GCGTTGCA,-0.112
3,AAAGCCTG,-0.145
4,ATAGGGAC,-0.139
5,AGGCTTCA,-0.16
6,ATGTTCCA,0.0432
7,CCTAGAAG,-0.131
8,CTGAATTC,0.0354
9,ACTCTGGA,0.0914
10,GCCGCGCC,-0.124
11,GCTACCAA,-0.158
12,AGATAGTG,0.232
13,ACTGGAGG,-0.105
14,ACTGCGGA,0.0453
15,ACCGCGCT,0.00168
16,ACTCTCGC,-0.0207
17,AGGAACGA,-0.0493
18,ACTCAGCT,0.0229
19,ATCTGCAA,-0.101
20,CCGACTGC,-0.0495
21,AAAGCCAA,-0.071
22,CCCTGAAA,-0.024
23,CCTGTAAA,-0.0789
24,AGATATGG,0.191
25,GATCGGGC,-0.198

row,Sequence,PBM E-score
1,ACTTTTAA,0.0488
2,CCACGAGC,-0.16
3,AGTTTCCC,-0.111
4,CGCGAAGA,0.0316
5,GGCCCGAA,0.0391
6,ATGGGTTA,-0.0104
7,CCGCTTCA,-0.111
8,AGAGAGAT,0.0305
9,GCAGACAA,0.129
10,AGGAGGTA,0.01
11,AGCACGCC,-0.157
12,CAGACTTC,-0.146
13,AGACCCAC,-0.0619
14,ATTTTAGA,0.0566
15,GGTCCAAA,-0.111
16,CTAGGTGA,-0.0157
17,ACGCACGC,0.262
18,CGTAGCCA,-0.0722
19,CAGTGCAG,-0.00824
20,AAACCTGA,-0.0213
21,ACTGAAGG,-0.13
22,GCGCTTGA,0.13
23,CGTACCAG,-0.155
24,AGCCGTCA,-0.0691
25,TTGGACAA,0.143

row,Sequence,PBM E-score
1,ATGTACAT,0.225
2,AGATCGTA,-0.0596
3,ATGGTAAT,0.128
4,AACCATGG,-0.0519
5,AGCCACGG,-0.251
6,CTCAACAA,0.14
7,ATTCGAGG,-0.106
8,CCAGAGGG,-0.184
9,ATCTTTGG,-0.0595
10,GATCCTAA,-0.0348
11,AATATAAA,0.282
12,GACATCCC,-0.0566
13,AGTCTAGC,-0.207
14,ATATTACA,0.226
15,GGCAGAAC,0.0224
16,CTTGGTAA,0.101
17,CGGTTGGC,0.107
18,GAATCGTC,-0.0255
19,AGCATAGA,-0.0751
20,ATGCCCGA,-0.013
21,CTCACTTC,-0.193
22,GATTTGGC,-0.0271
23,ACGTCACT,0.0465
24,CCACATAA,0.0607
25,CGGCGCAA,-0.0572

row,Sequence,PBM E-score
1,CCTCTCGC,-0.0838
2,ATCGCAAT,0.168
3,TAATATTA,0.347
4,CGCGACAA,0.272
5,AGCCACAT,0.0698
6,AACAGTGT,0.0419
7,CGACGATC,0.123
8,CACAAGCC,-0.186
9,CCCATTTA,0.0472
10,ATGATCAT,0.0725
11,CGAGGGCC,-0.0155
12,AAAGGAGG,-0.232
13,CAATAATC,0.142
14,GAAGTCTC,-0.16
15,CGGAAACA,0.0155
16,ACGAACGT,0.0464
17,CATAGACG,0.0717
18,GATACACC,0.161
19,AGGCCGGA,-0.139
20,CTCGGATA,0.158
21,GCTTAAGC,-0.066
22,TAGACCTA,-0.128
23,CGTCAAGA,-0.1
24,GCGCGAGA,0.124
25,CTTCTTTC,0.027

# Taken from above.
# For PBM E-score, CGAGGGCC has the entry -0.0155
# For PBM E-score, GCTTAAGC has the entry -0.066

# Later entries.

row,Sequence,PBM E-score
1,ATGGGGTC,-0.233
2,TGAGGTAA,0.067
3,CGTAAACC,-0.00624
4,GACTTATC,-0.047
5,CACTTGAC,-0.0554
6,AGCTACTA,0.0917
7,GCCCCGGC,-0.319
8,AAGAGCCG,-0.0966
9,GGGCACGA,-0.131
10,CGGTCCAC,-0.282
11,GCCGCGAC,-0.148
12,AATCATCG,-0.00013
13,GGGCGACA,-0.182
14,GAGGAATA,0.135
15,ATCCCGAG,0.103
16,ATTAGGCC,0.047
17,CATGTTAA,0.188
18,ACCAGTCC,-0.186
19,ACTTTTTG,0.141
20,GTACTACA,0.173
21,TAGAATGA,0.125
22,ATCGGAGG,-0.0686

# Exported as tab-separated lines: part of the list above
row	Sequence	PBM E-score
2	TGAGGTAA	0.067
9	GGGCACGA	-0.131
13	GGGCGACA	-0.182
14	GAGGAATA	0.135
17	CATGTTAA	0.188
19	ACTTTTTG	0.141

# Source: the supplement of paper PMC3334620
